{"source": "PubChem BioAssay AID504467", "about": "(National Center for Advancing Translational Sciences (NCATS), 2011)", "note": "About 7,700 (2.3%) of roughly 330,000 compounds were called active. This list was built around the results that the source calls inconclusive (neither active nor inactive); the mix of calls is not that of the screen. The call rests on the fitted dose curve; in most records, active means well fitted inhibition curve with a large enough effect; inconclusive means small, poorly fitted or top-dose-only effect, or effect the other way; inactive means flat fitted curve, though single readings scatter. Potencies beside an inconclusive call are fits to weak or partial responses and may not hold up. Potency means the concentration at half of the fitted maximal effect.", "data": [{"assay": "qHTS screen for small molecules that inhibit ELG1-dependent DNA repair in human embryonic kidney (HEK293T) cells expressing luciferase-tagged ELG1; further: nearly all actives have a fitted effect of over 55% in size", "conditions": "HEK293T ELG1-luciferase reporter, luminescence, 16 h, DNA damage induced by 5-fluorouridine; series mostly up to 46.1 µM", "how_it_was_run": "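Quantitative HTS, concentration-response format. 2,000 cells/well co-treated with 5-fluorouridine and compound, 16 hr in 5% CO2 at 37 °C; ONE-Glo luminescence read after 30 min.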", "values": [{"smiles": "CCOc1ccc(NC(=O)c2ccccc2NS(C)(=O)=O)cc1", "Potency": "inconclusive: 14.6 µM [activator, partial curve]"}, {"smiles": "Cc1ccc(Cl)cc1N1CCN(C(=O)CN(c2ccccc2)S(=O)(=O)N(C)C)CC1", "Potency": "inconclusive: 18.3 µM [inhibitor, single point]"}, {"smiles": "CC(C)(C)OC(=O)COc1cc(O)c2c(=O)cc(-c3ccccc3)oc2c1", "Potency": "inactive"}, {"smiles": "CCOC(=O)CC(=O)CSc1nc(-c2cccnc2)ccc1C#N", "Potency": "inconclusive: 23.1 µM [activator, single point]"}, {"smiles": "COc1ccc2c(c1)nc(SCC(=O)c1cccs1)n2C", "Potency": "inconclusive: 18.4 µM [activator, partial curve]"}, {"smiles": "COc1cc(/C=N/n2cnnc2)ccc1OCc1ccccc1", "Potency": "inactive"}, {"smiles": "COc1ccccc1N1CCN(C(=O)COc2ccc(Cl)cc2Br)CC1", "Potency": "inconclusive: 32.6 µM [inhibitor, single point]"}, {"smiles": "COc1c(-c2ccc(O)c(O)c2)oc2cc(O)cc(O)c2c1=O", "Potency": "inconclusive: 18.3 µM [activator, single point]"}, {"smiles": "COc1ccc(C(CNC(=O)c2cccc(N(C)C)c2)N2CCCC2)cc1", "note": "(stereo not drawn)", "Potency": "inactive"}, {"smiles": "Clc1ccccc1-c1nnc(-c2cccnc2)o1", "Potency": "inconclusive: 14.6 µM [activator, partial curve]"}, {"smiles": "COc1ccc(NC(=O)c2oc3cc(C)c(C)cc3c2C)c(OC)c1", "Potency": "inactive"}, {"smiles": "Cc1ccc(NNC(=O)c2ccno2)c(C)c1", "Potency": "active: 13 µM"}, {"smiles": "O=C(COc1cccc2ccccc12)N1CCN(c2ccccc2)CC1", "Potency": "active: 8.2 µM"}, {"smiles": "CC1(C)CC(=O)CC2(C1)NCC(c1ccccc1)c1c2[nH]c2ccccc12", "note": "(stereo not drawn)", "Potency": "inconclusive: 29.1 µM [inhibitor, single point]"}, {"smiles": "COc1ccc(C(=O)NNC(=O)c2snnc2C)cc1", "Potency": "inconclusive: 23.1 µM [activator, single point]"}, {"smiles": "CCn1c(CCC(=O)O)nc2cc(S(=O)(=O)N(C)C)ccc21", "Potency": "inactive"}, {"smiles": "CNc1nc(-c2ccc3c(c2)CCN3C(=O)c2cccc(F)c2)cs1", "Potency": "inconclusive: 2.06 µM [activator, partial curve]"}, {"smiles": "COc1ccc(NC(=O)CCN2CCN(S(=O)(=O)c3cc(Cl)ccc3Cl)CC2)cc1", "Potency": "inconclusive: 18.4 µM [inhibitor, single point]"}, {"smiles": "CN1CCN(S(=O)(=O)c2ccc(Nc3cccc(Cl)c3)c([N+](=O)[O-])c2)CC1", "Potency": "inactive"}, {"smiles": "COCCn1nnnc1C(c1ccc(OC)cc1)N1CCN(C(=O)c2ccco2)CC1", "note": "(stereo not drawn)", "Potency": "inactive"}, {"smiles": "CCc1ccccc1N(C(=O)c1snc(C(N)=O)c1N)C(C(=O)NCC1CCCO1)c1ccc(N(C)C)cc1", "note": "(stereo not drawn)", "Potency": "inactive"}, {"smiles": "N#CC(C#N)=C1NC2(CCCCC2)Cc2ccccc21", "Potency": "inconclusive: 20.6 µM [inhibitor, single point]"}, {"smiles": "COc1ccc(-c2nc3ncccc3o2)cc1NC(=O)c1cccs1", "Potency": "inactive"}, {"smiles": "Cc1ccc(-n2[nH]c(C)c(/C=N/N3C(=O)c4cccc5cccc(c45)C3=O)c2=O)cc1", "Potency": "inconclusive: 29.1 µM [activator, single point]"}, {"smiles": "CC(C)c1nnc(NC(=O)CC(=O)Nc2ccccc2C(=O)O)s1", "Potency": "inconclusive: 23.1 µM [activator, partial curve, poor fit]"}, {"smiles": "COc1cc(C)ccc1OCCOCCOc1cccc2ccc(C)nc12", "Potency": "inactive"}, {"smiles": "COc1ccc(CCNC(=O)c2ccc(CNS(=O)(=O)c3ccccc3)cc2)cc1OC", "Potency": "inconclusive: 20.6 µM [inhibitor, partial curve, poor fit]"}, {"smiles": "COc1ccc(CCNCC2C(Oc3ccc(Cl)cc3)C(=O)N2c2ccccc2C)cc1OC", "note": "(stereo not drawn)", "Potency": "inconclusive: 23.1 µM [inhibitor, single point]"}, {"smiles": "Cc1ccc2nc(-c3ccc(NC(=S)NC(=O)C(C)C)cc3)sc2c1", "Potency": "inconclusive: 6.51 µM [activator, partial curve]"}, {"smiles": "C/C=C\\C=C/C(=O)Nc1cccc(C2=NOC3(C2)C[C@@H](C(N)=O)N(C(=O)C2(C)CC2)C3)c1", "note": "(stereo partly drawn)", "Potency": "inconclusive: 29.1 µM [activator, partial curve, poor fit]"}, {"smiles": "O=C(Nc1cccc(-c2ccc(N3CCCCC3)nn2)c1)C(F)(F)F", "Potency": "inconclusive: 0.82 µM [activator, partial curve]"}, {"smiles": "O=C(Nc1ccc(C(=O)Oc2ccccc2)c(O)c1)c1ccco1", "Potency": "inconclusive: 0.461 µM [activator, partial curve]"}, {"smiles": "O=C(Nc1ccccc1F)c1ccc(C(=O)c2ccccc2)cc1", "Potency": "inconclusive: 18.3 µM [activator, partial curve]"}, {"smiles": "CN(c1ccccc1)S(=O)(=O)c1ccc(Cl)c(C(=O)OCC(N)=O)c1", "Potency": "inactive"}, {"smiles": "Cn1c(SCC(=O)NCC2CCCO2)ncc(C(=O)Nc2ccc(Cl)cc2)c1=O", "note": "(stereo not drawn)", "Potency": "inconclusive: 18.3 µM [activator, partial curve]"}, {"smiles": "COc1ccc(C(=O)Nc2cccc(C(=O)N3CCCCC3)c2)cc1", "Potency": "inactive"}, {"smiles": "Cc1ccc(/C=C/c2onc(C)c2S(=O)(=O)N2CCC(C(=O)N3CCCCC3)CC2)cc1", "Potency": "inconclusive: 29.1 µM [inhibitor, single point]"}, {"smiles": "O=C(O)CSc1ncccn1", "Potency": "inactive"}, {"smiles": "CCOC(=O)CC1C(=O)NCCN1c1nc2c(C)cccn2c(=O)c1/C=C1\\SC(=S)N(C(C)CC)C1=O", "note": "(stereo not drawn)", "Potency": "active: 20.6 µM"}, {"smiles": "N/C(=N\\c1nc2ccccc2o1)NC(=O)c1ccccc1", "Potency": "inconclusive: 4.61 µM [activator, full curve]"}, {"smiles": "CC(=O)Nc1nc(-c2ccc3ccccc3c2)cs1", "Potency": "inconclusive: 1.46 µM [activator, full curve]"}, {"smiles": "Cc1nc(CS(=O)(=O)c2ccccc2)cc(Sc2ccc(Cl)cc2)n1", "Potency": "inconclusive: 13 µM [activator, partial curve]"}, {"smiles": "O=C(Nc1cccc(S(=O)(=O)Nc2ccc(Cl)cc2)c1)c1ccc(Cl)nc1", "Potency": "inconclusive: 1.3 µM [inhibitor, full curve]"}, {"smiles": "CCOC(=O)CNS(=O)(=O)c1ccc2c3c(cccc13)C(=O)N2CC", "Potency": "inconclusive: 20.6 µM [activator, single point]"}, {"smiles": "O=S(=O)(c1ccc(Br)cc1)N1CCOC12CCCCC2", "Potency": "inconclusive: 16.4 µM [inhibitor, single point]"}, {"smiles": "Cc1nn(CC(C)C)c(Cl)c1C(=O)N(c1ccc(Cl)cc1F)S(C)(=O)=O", "Potency": "inactive"}, {"smiles": "CCOC(=O)c1cnc2ccc(OCC)cc2c1N(C)Cc1ccccc1", "Potency": "inconclusive: 32.6 µM [inhibitor, single point]"}, {"smiles": "CCOC(=O)[C@@H]1[C@H]2COc3cc(OC)ccc3[C@@H]2N2C(=O)N(c3cccc(C)c3)C(=O)[C@]12C", "Potency": "inconclusive: 23.1 µM [inhibitor, partial curve, poor fit]"}, {"smiles": "COc1ccc(-n2nc(C(=O)Nc3ccc4c(c3)OCO4)c3c4ccccc4n(C)c3c2=O)cc1", "Potency": "inconclusive: 2.59 µM [inhibitor, partial curve, poor fit]"}, {"smiles": "O=[N+]([O-])c1ccc(N2CCN(c3cccc(Cl)c3)CC2)cn1", "Potency": "inconclusive: 16.4 µM [inhibitor, partial curve]"}, {"smiles": "CCOC(=O)C1=C(c2ccccc2)N2CCS(=O)(=O)N=C2S1", "Potency": "inconclusive: 6.51 µM [activator, partial curve, poor fit]"}, {"smiles": "CCC(=O)N1CCc2cc(S(=O)(=O)CCC(=O)NCc3cccc(OC)c3)ccc21", "Potency": "inactive"}, {"smiles": "CC(=O)Nc1ccc(S(C)(=O)=O)c(C)c1", "Potency": "inactive"}, {"smiles": "CCOc1ccccc1-n1ccn(CC(=O)Nc2ccc(Br)cc2F)c(=O)c1=O", "Potency": "inconclusive: 14.6 µM [inhibitor, single point]"}, {"smiles": "COc1ccc(C(=O)Nc2cc(OCc3ccccc3)c(Cl)cc2Cl)cc1", "Potency": "inconclusive: 5.01 µM [activator, partial curve, poor fit]"}, {"smiles": "CC(=O)Nc1ccc(C(=O)OCC(=O)N(c2ccccc2)C2CCCCC2)cc1", "Potency": "inconclusive: 25.9 µM [inhibitor, partial curve]"}, {"smiles": "Cc1nc(N)c(C#N)c(-c2cccnc2)c1-c1ccccc1", "Potency": "inconclusive: 8.2 µM [inhibitor, partial curve]"}, {"smiles": "O=S1(=O)N=C(N/N=C/C=C/c2ccccc2)c2ccccc21", "Potency": "inactive"}, {"smiles": "COc1ccc(Cl)cc1NC(=O)CN1CCc2ccccc21", "Potency": "inconclusive: 25.9 µM [inhibitor, partial curve, poor fit]"}, {"smiles": "CC(=O)N1CCCc2cc(S(=O)(=O)N3CCCC(C(=O)N4CCN(c5cc(C)ccc5C)CC4)C3)ccc21", "note": "(stereo not drawn)", "Potency": "inconclusive: 23.1 µM [inhibitor, single point]"}, {"smiles": "Cc1noc(C)c1COc1ccccc1C(=O)NCCc1ccc(Cl)cc1", "Potency": "inconclusive: 25.9 µM [activator, single point]"}, {"smiles": "CN(CC(=O)Nc1cccc(F)c1)C(=O)CCNC(=O)c1ccc(Br)cc1", "Potency": "inconclusive: 18.3 µM [activator, partial curve]"}, {"smiles": "CC1CC(C)CN(CCCNC(=O)C2CCN(c3nnc(-n4cccc4)s3)CC2)C1", "note": "(stereo not drawn)", "Potency": "inconclusive: 29.1 µM [activator, single point]"}, {"smiles": "COc1ccc(C(=O)Nc2ccc(S(=O)(=O)N3CCCC3)cc2)cc1[N+](=O)[O-]", "Potency": "inconclusive: 8.2 µM [inhibitor, partial curve, poor fit]"}, {"smiles": "C/C=C/c1ccc(OCCCNC(C)CC)c(OC)c1", "note": "(stereo not drawn)", "Potency": "inactive"}, {"smiles": "CCCCCCOc1ccc(C(=O)O)cc1", "Potency": "inconclusive: 18.3 µM [activator, partial curve]"}, {"smiles": "CC(Sc1nnc(-c2ccc(C(C)(C)C)cc2)n1C)C(N)=O", "note": "(stereo not drawn)", "Potency": "inconclusive: 25.9 µM [activator, single point]"}, {"smiles": "COc1ccc(NC(=O)c2ccc(OCC3CCCO3)cc2)cc1OC", "note": "(stereo not drawn)", "Potency": "inactive"}]}]}
